Laboratory results reported in patent US11951202B2, “Compounds and compositions for use” (DR WELLER LIMITED, priority 2016, dated 2024).

Test system: full thickness human skin homogenate
Test: In vitro NO generation by NO specific Clarke-type electrode, UVA-irradiated skin homogenate
Format: biochemical
Conditions: UVA radiation, nitrite source
Description: Electrochemical sensors are widely used for the measurement of NO generation and Clark-type electrodes are most widely used as they are commercially available and easy to handle. The principle of these sensors is that NO diffuses through a gas-permeable membrane and a thin film of electrolyte, followed by oxidation on the working electrode. This oxidation creates a current that is proportional to the concentration of NO outside the membrane. The advantage of electrochemical NO sensors is the ability to directly detect NO concentration in solution or in biological samples with a low nanomolar detection limit. This makes NO electrodes an excellent tool for studying NO generation especially in biological samples.
We used the Clarke electrode technique to investigate the mechanism of UVA light dependent NO generation in skin and cosmetically acceptable components which could facilitate augment the endogenous process.
A 10% (g/mL) full thickness human skin homogenate in phosphate buffer was prepared using a glass/glass homogenizer. The homogenate was preheated at 56° C. for 1 hour to inactivate enzymatic generation of NO.
200 ul of homogenate was placed in a quartz cuvette in a thermostatically controlled environment and irradiated with broadband (320-400 nm) UVA radiation. Baseline signals were recorded. […]

CC(C)(CO)[C@@H](O)C(=O)NCCC(=O)NCCSSCCNC(=O)CCNC(=O)[C@H](O)C(C)(C)CO [Pantethine, reference compound]
sustained UV induced NO generation from nitrite: ineffective
